In patent US6528068B1, “Cosmetic composition containing N-acyl neutral amino acid esters of lower alcohols” (Ajinomoto Co., Inc., priority 1997, dated 2003):

Key:
[1] = Organoleptic evaluation of the feeling of neat oily materials by five panelists; format: in vivo; conditions: neat oily material (solids melted at 45° C.) on back of hand
[2] = Examination of clean feeling and the like of inorganic pigment compositions; format: in vivo; conditions: 25% by weight oily material, 25% TiO2, 50% liquid paraffin; five panelists
[3] = Organoleptic evaluation of a milky lotion containing each oily material; format: in vivo; conditions: milky lotion with 5.0 % by weight oily material, pH 6.5; five panelists; liquid paraffin = 0 (blank)
[4] = Hair conditioning property after dipping hair in an ethanol solution of the oily material; conditions: hair (2.5 g) dipped 2 minutes in 0.05 weight % ethanol solution of the oily material; five panelists

CCCCCCCCCCCC(=O)N(C)CC(=O)OCCCCCCCCCCCCCCCC(C)C [Reference Synthesis Example 1, N-lauroylsarcosine isostearyl ester]
Heavy feeling: sticky [1]: 2 number of persons
Heavy feeling: wet [1]: 2 number of persons
Adaptability [2]: Δ (when the average value was at least 0.5 and less than 1.0, it was rated as Δ)
Clean feeling [2]: Δ (when the average value was at least 0.5 and less than 1.0, it was rated as Δ)
Extensibility [2]: Δ (when the average value was at least 0.5 and less than 1.0, it was rated as Δ)
Smoothness [2]: Δ (when the average value was at least 0.5 and less than 1.0, it was rated as Δ)
Stickiness [2]: Δ (when the average value was at least 0.5 and less than 1.0, it was rated as Δ)

CCCCCCCCCCCC(=O)N(C)CC(=O)OCC(CCCCCCCC)CCCCCCCCCC (stereo not drawn) [Reference Synthesis Example 2, N-lauroylsarcosine octyl dodecyl ester, reference compound]
Heavy feeling: sticky [1]: 3 number of persons
Heavy feeling: wet [1]: 2 number of persons

CCCCCCCCCCCC(=O)N[C@@H](C)C(=O)OCC(CCCCCCCC)CCCCCCCCCC (stereo partly drawn) [Reference Synthesis Example 3, N-lauroyl alanine octyldodecyl ester, reference compound]
Heavy feeling: sticky [1]: 4 number of persons
Heavy feeling: wet [1]: 1 number of persons
Adaptability [3]: Δ (when the average value was at least −1.0 and less than 0.5, it was rated as bad (Δ))
Clean feeling [3]: Δ (when the average value was at least −1.0 and less than 0.5, it was rated as bad (Δ))
Extensibility [3]: Δ (when the average value was at least −1.0 and less than 0.5, it was rated as bad (Δ))
Smoothness [3]: Δ (when the average value was at least −1.0 and less than 0.5, it was rated as bad (Δ))
Conditioning property [4]: Δ (when the average value was at least −1.0 and less than 0.5, it was rated as bad (Δ))

CCCCCCCC(=O)NCC(=O)OC(C)C [Synthesis Example 1, N-octanoylglycine isopropyl ester]
Light feeling: dry [1]: 1 number of persons

CCCCCCCCCCCCCC(=O)NCC(=O)OCCCCCCCC [Synthesis Example 7, N-myristoyl glycine octyl ester]
Conditioning property [4]: ∘ (when the average was at least 0.5 and less than 1.0, it was rated as good (∘))

CCCCCCCCCCCCCCCCCC(=O)N[C@@H](C)C(=O)OCCCCCCCC [Synthesis Example 8, N-stearoyl alanine octyl ester]
Conditioning property [4]: ∘ (when the average was at least 0.5 and less than 1.0, it was rated as good (∘))

CCCCCCCCCCCC(=O)N[C@@H](C)C(=O)OCC [Synthesis Example 9, N-lauroyl alanine ethyl ester]
Light feeling: dry [1]: 1 number of persons

CCCCCCCCCCCC(=O)N[C@@H](C)C(=O)OC(C)(C)C [Synthesis Example 10, N-lauroyl alanine t-butyl ester]
Heavy feeling: wet [1]: 1 number of persons

CCCCCCCCCCCC(=O)N(C)CC(=O)OC(C)C [Synthesis Example 14, N-laurolysarcosine isopropyl ester]
Light feeling: dry [1]: 4 number of persons
Conditioning property [4]: ∘ (when the average was at least 0.5 and less than 1.0, it was rated as good (∘))

CCCCCCCCCCCC(=O)N(C)CCC(=O)OC(C)C [Synthesis Example 15, N-lauroyl-N-methyl-β-alanine isopropyl ester]
Heavy feeling: wet [1]: 1 number of persons
Light feeling: dry [1]: 2 number of persons

CCCCCCCCCCCC(=O)N[C@@H](C)C(=O)OC(C)C [Synthesis Example 17, N-lauroyl alanine isopropyl ester]
Light feeling: dry [1]: 1 number of persons
Conditioning property [4]: ∘∘ (When the average value was between 1.0 and 2.0, it was rated as very good (∘∘))

CCCCCCCCCCCCCC(=O)OC(C)C [isopropyl myristate]
Adaptability [3]: Δ (when the average value was at least −1.0 and less than 0.5, it was rated as bad (Δ))
Extensibility [3]: Δ (when the average value was at least −1.0 and less than 0.5, it was rated as bad (Δ))
Smoothness [3]: Δ (when the average value was at least −1.0 and less than 0.5, it was rated as bad (Δ))
Conditioning property [4]: Δ (when the average value was at least −1.0 and less than 0.5, it was rated as bad (Δ))
Extensibility [2]: Δ (when the average value was at least 0.5 and less than 1.0, it was rated as Δ)
Smoothness [2]: Δ (when the average value was at least 0.5 and less than 1.0, it was rated as Δ)

CCCCCCCCCCCC(=O)N[C@@H](CCC(=O)OCC(CCCCCCCC)CCCCCCCCCC)C(=O)OCC(CCCCCCCC)CCCCCCCCCC (stereo partly drawn) [lauroylglutamic acid octyldodecyl diester]
Clean feeling [2]: Δ (when the average value was at least 0.5 and less than 1.0, it was rated as Δ)
Smoothness [2]: Δ (when the average value was at least 0.5 and less than 1.0, it was rated as Δ)
Stickiness [2]: Δ (when the average value was at least 0.5 and less than 1.0, it was rated as Δ)

Some entries repeat one wording, which the source may state once for all of them.
